Data as given in article PMC8575462, “PP2A/B55α substrate recruitment as defined by the retinoblastoma-related protein p107” (eLife, 2021).
Positions count from the first letter of the chain named. These are yes or no findings as the source states them, for the method shown. In cells and extracts the contact can be indirect. Some binding calls cover weakened binding; strength is not graded here. Where a sequence is shown, tags or fusion partners need not be part of it.

Columns and labels:
[1] = biological target: T1, GST-p107 spacer (UniProt P28749); assay: pull-down; GST-p107 spacer constructs on glutathione beads incubated with U-2 OS whole-cell lysate (methods: 293T lysates), 3 hr or overnight at 4°C, washed 5x with DIP lysis buffer; western blot; only the target purified
T1 sequence: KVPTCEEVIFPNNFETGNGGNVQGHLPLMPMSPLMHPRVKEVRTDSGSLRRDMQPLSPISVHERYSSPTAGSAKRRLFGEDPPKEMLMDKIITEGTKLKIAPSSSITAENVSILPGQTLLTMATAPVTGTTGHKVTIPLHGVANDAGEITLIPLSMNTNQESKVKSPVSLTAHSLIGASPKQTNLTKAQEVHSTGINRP

[2] = biological target: T2, Myc-B55α V228A (UniProt P63151); assay: co-IP; 293T cells co-transfected with a FLAG-tagged substrate and wildtype or mutant Myc-B55α; IP with anti-Myc agarose; blots with anti-Flag, anti-B55α, anti-PP2A/C
T2 sequence: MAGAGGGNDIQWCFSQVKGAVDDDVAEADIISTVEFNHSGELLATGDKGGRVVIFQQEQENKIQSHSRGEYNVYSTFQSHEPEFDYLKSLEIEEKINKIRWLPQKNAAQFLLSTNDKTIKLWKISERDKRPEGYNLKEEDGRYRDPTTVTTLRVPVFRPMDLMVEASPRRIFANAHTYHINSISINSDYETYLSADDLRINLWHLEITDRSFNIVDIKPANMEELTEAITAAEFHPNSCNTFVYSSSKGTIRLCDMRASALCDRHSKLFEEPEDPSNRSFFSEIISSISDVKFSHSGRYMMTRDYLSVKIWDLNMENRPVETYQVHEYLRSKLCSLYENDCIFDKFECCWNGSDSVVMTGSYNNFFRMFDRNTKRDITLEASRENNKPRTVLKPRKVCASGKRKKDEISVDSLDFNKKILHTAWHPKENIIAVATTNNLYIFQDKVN

[3] = biological target: T3, Myc-B55α H179A (UniProt P63151); assay: as above
T3 sequence: T2 sequence with H179A, A228V

[4] = biological target: T4, Myc-B55α wild type (UniProt P63151); assay: as above
T4 sequence: T2 sequence with A228V

B1: B55α (PP2A regulatory subunit B55α), endogenous in U-2 OS cells (protein, UniProt P63151 1-447)
chain: T2 sequence with A228V
binding [1]: binds

B2: Flag-p107 (protein, UniProt P28749 1-1068)
chain: MFEDKPHAEGAAVVAAAGEALQALCQELNLDEGSAAEALDDFTAIRGNYSLEGEVTHWLACSLYVACRKSIIPTVGKGIMEGNCVSLTRILRSAKLSLIQFFSKMKKWMDMSNLPQEFRERIERLERNFEVSTVIFKKYEPIFLDIFQNPYEEPPKLPRSRKQRRIPCSVKDLFNFCWTLFVYTKGNFRMIGDDLVNSYHLLLCCLDLIFANAIMCPNRQDLLNPSFKGLPSDFHTADFTASEEPPCIIAVLCELHDGLLVEAKGIKEHYFKPYISKLFDRKILKGECLLDLSSFTDNSKAVNKEYEEYVLTVGDFDERIFLGADAEEEIGTPRKFTRDTPLGKLTAQANVEYNLQQHFEKKRSFAPSTPLTGRRYLREKEAVITPVASATQSVSRLQSIVAGLKNAPSDQLINIFESCVRNPVENIMKILKGIGETFCQHYTQSTDEQPGSHIDFAVNRLKLAEILYYKILETVMVQETRRLHGMDMSVLLEQDIFHRSLMACCLEIVLFAYSSPRTFPWIIEVLNLQPFYFYKVIEVVIRSEEGLSRDMVKHLNSIEEQILESLAWSHDSALWEALQVSANKVPTCEEVIFPNNFETGNGGNVQGHLPLMPMSPLMHPRVKEVRTDSGSLRRDMQPLSPISVHERYSSPTAGSAKRRLFGEDPPKEMLMDKIITEGTKLKIAPSSSITAENVSILPGQTLLTMATAPVTGTTGHKVTIPLHGVANDAGEITLIPLSMNTNQESKVKSPVSLTAHSLIGASPKQTNLTKAQEVHSTGINRPKRTGSLALFYRKVYHLASVRLRDLCLKLDVSNELRRKIWTCFEFTLVHCPDLMKDRHLDQLLLCAFYIMAKVTKEERTFQEIMKSYRNQPQANSHVYRSVLLKSIPREVVAYNKNINDDFEMIDCDLEDATKTPDCSSGPVKEERGDLIKFYNTIYVGRVKSFALKYDLANQDHMMDAPPLSPFPHIKQQPGSPRRISQQHSIYISPHKNGSGLTPRSALLYKFNGSPSKSLKDINNMIRQGEQRTKKRVIAIDSDAESPAKRVCQENDDVLLKRLQDVVSERANH
binding [2]: binds | binding [3]: binds | binding [4]: binds

B3: Flag-pRB (protein, UniProt P06400 1-928)
chain: MPPKTPRKTAATAAAAAAEPPAPPPPPPPEEDPEQDSGPEDLPLVRLEFEETEEPDFTALCQKLKIPDHVRERAWLTWEKVSSVDGVLGGYIQKKKELWGICIFIAAVDLDEMSFTFTELQKNIEISVHKFFNLLKEIDTSTKVDNAMSRLLKKYDVLFALFSKLERTCELIYLTQPSSSISTEINSALVLKVSWITFLLAKGEVLQMEDDLVISFQLMLCVLDYFIKLSPPMLLKEPYKTAVIPINGSPRTPRRGQNRSARIAKQLENDTRIIEVLCKEHECNIDEVKNVYFKNFIPFMNSLGLVTSNGLPEVENLSKRYEEIYLKNKDLDARLFLDHDKTLQTDSIDSFETQRTPRKSNLDEEVNVIPPHTPVRTVMNTIQQLMMILNSASDQPSENLISYFNNCTVNPKESILKRVKDIGYIFKEKFAKAVGQGCVEIGSQRYKLGVRLYYRVMESMLKSEEERLSIQNFSKLLNDNIFHMSLLACALEVVMATYSRSTSQNLDSGTDLSFPWILNVLNLKAFDFYKVIESFIKAEGNLTREMIKHLERCEHRIMESLAWLSDSPLFDLIKQSKDREGPTDHLESACPLNLPLQNNHTAADMYLSPVRSPKKKGSTTRVNSTANAETQATSAFQTQKPLKSTSLSLFYKKVYRLAYLRLNTLCERLLSEHPELEHIIWTLFQHTLQNEYELMRDRHLDQIMMCSMYGICKVKNIDLKFKIIVTAYKDLPHAVQETFKRVLIKEEEYDSIIVFYNSVFMQRLKTNILQYASTRPPTLSPIPHIPRSPYKFPSSPLRIPGGNIYISPLKSPYKISEGLPTPTKMTPRSRILVSIGESFGTSEKFQKINQMVCNSDRVLKRSAEGSNPPKPLKKLRFDIEGSDEADGSKHLPGESKFQQKLAEMTSTRTRMQKQKMNDSMDTSNKEEK
binding [2]: binds | binding [3]: binds | binding [4]: binds

B4: Flag-KSR1 (protein, UniProt Q8IVT5 1-923)
chain: MDRAALRAAAMGEKKEGGGGGDAAAAEGGAGAAASRALQQCGQLQKLIDISIGSLRGLRTKCAVSNDLTQQEIRTLEAKLVRYICKQRQCKLSVAPGERTPELNSYPRFSDWLYTFNVRPEVVQEIPRDLTLDALLEMNEAKVKETLRRCGASGDECGRLQYALTCLRKVTGLGGEHKEDSSWSSLDARRESGSGPSTDTLSAASLPWPPGSSQLGRAGNSAQGPRSISVSALPASDSPTPSFSEGLSDTCIPLHASGRLTPRALHSFITPPTTPQLRRHTKLKPPRTPPPPSRKVFQLLPSFPTLTRSKSHESQLGNRIDDVSSMRFDLSHGSPQMVRRDIGLSVTHRFSTKSWLSQVCHVCQKSMIFGVKCKHCRLKCHNKCTKEAPACRISFLPLTRLRRTESVPSDINNPVDRAAEPHFGTLPKALTKKEHPPAMNHLDSSSNPSSTTSSTPSSPAPFPTSSNPSSATTPPNPSPGQRDSRFNFPAAYFIHHRQQFIFPVPSAGHCWKCLLIAESLKENAFNISAFAHAAPLPEAADGTRLDDQPKADVLEAHEAEAEEPEAGKSEAEDDEDEVDDLPSSRRPWRGPISRKASQTSVYLQEWDIPFEQVELGEPIGQGRWGRVHRGRWHGEVAIRLLEMDGHNQDHLKLFKKEVMNYRQTRHENVVLFMGACMNPPHLAIITSFCKGRTLHSFVRDPKTSLDINKTRQIAQEIIKGMGYLHAKGIVHKDLKSKNVFYDNGKVVITDFGLFGISGVVREGRRENQLKLSHDWLCYLAPEIVREMTPGKDEDQLPFSKAADVYAFGTVWYELQARDWPLKNQAAEASIWQIGSGEGMKRVLTSVSLGKEVSEILSACWAFDLQERPSFSLLMDMLEKLPKLNRRLSHPGHFWKSADINSSKVVPRFERFGLGVLESSNPKM
binding [2]: binds | binding [3]: binds | binding [4]: binds
